Measurements as given in paper PMC7352202.
Results are given in words; binding and its absence hold for the method and conditions named. For some assays here: In cells and extracts the contact can be indirect. Some entries that bind do so weakly or less than the wild type. For some assays here: Tags and fused reporters may be left off the sequences shown.

Sequences of proteins named here, by UniProt entry; tags and fusion partners are left off.
UniProt Q05086: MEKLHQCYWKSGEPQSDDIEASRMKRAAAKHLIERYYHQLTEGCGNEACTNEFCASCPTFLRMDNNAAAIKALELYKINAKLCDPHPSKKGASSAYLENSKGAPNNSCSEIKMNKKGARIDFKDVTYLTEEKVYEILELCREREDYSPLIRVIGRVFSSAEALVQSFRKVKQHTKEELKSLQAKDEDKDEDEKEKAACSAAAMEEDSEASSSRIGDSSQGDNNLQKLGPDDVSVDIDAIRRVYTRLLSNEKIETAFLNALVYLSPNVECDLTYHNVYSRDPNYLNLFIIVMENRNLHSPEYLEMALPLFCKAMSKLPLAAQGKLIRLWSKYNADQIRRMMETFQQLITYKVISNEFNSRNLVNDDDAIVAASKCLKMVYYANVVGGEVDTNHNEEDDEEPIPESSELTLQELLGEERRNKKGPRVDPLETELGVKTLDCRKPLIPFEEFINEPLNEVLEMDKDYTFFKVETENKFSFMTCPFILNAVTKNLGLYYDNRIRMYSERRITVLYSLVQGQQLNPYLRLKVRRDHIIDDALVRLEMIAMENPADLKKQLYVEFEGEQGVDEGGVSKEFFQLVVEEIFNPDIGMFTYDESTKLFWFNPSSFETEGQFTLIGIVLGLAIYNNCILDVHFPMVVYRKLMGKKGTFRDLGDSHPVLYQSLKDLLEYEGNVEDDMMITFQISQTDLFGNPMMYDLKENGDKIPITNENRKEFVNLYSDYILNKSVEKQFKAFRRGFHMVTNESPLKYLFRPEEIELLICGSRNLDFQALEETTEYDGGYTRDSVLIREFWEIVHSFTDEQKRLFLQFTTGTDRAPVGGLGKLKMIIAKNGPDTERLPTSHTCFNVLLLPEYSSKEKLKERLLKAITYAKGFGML
UniProt O94874: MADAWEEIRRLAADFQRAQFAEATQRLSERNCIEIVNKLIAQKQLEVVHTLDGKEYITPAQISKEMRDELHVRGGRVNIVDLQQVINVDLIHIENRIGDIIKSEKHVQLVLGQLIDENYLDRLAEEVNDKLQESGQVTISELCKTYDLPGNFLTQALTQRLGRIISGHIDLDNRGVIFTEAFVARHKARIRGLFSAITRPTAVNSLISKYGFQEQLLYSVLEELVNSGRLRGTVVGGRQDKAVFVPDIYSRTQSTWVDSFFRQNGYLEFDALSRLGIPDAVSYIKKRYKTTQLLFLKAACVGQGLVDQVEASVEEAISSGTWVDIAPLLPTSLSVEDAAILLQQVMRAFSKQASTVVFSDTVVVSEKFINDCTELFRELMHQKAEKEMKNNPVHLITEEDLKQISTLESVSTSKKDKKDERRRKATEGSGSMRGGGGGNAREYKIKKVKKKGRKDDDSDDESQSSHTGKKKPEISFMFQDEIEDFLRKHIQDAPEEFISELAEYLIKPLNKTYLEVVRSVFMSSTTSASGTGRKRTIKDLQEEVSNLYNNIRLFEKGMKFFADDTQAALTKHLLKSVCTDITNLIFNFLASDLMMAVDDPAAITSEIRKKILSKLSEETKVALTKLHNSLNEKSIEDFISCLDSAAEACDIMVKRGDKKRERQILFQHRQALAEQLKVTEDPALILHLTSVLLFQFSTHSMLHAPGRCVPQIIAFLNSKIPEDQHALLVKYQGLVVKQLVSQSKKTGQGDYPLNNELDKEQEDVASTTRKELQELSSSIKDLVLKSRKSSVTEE

Columns and labels:
[1] = target: UBE3A (yeast two-hybrid bait, pDEST32-UBE3A) (human) (UniProt Q05086); experiment: two-hybrid; library screen in yeast strain Mav203; E3 ligase bait in pDEST32, prey library of over 20,000 human ORFs in pDEST22; positive colonies survived on SD-4 (deficient in Ura, His, Leu and Trp) plates and were blue with X-Gal; hits identified by sequencing
[2] = target: UFL1 (yeast two-hybrid bait, pDEST32-UFL1) (human) (UniProt O94874); experiment: as above
[3] = target: UBE3A (in HEK293T cells, co-immunoprecipitation) (human) (UniProt Q05086); experiment: co-IP; HEK293T cell lysate in Co-IP buffer (50 mM Tris-Cl pH 7.5, 150 mM NaCl, 5.0 mM EDTA, 1.0% NP-40); specific antibodies with protein G agarose beads or anti-Flag affinity gels; immunoblot
GST-UFL1 (human) = GST-UFL1 (human) (UniProt O94874); experiment: pull-down; GST pull-down: purified GST-UFL1 (20 ug) and substrate-Flag-His6 (20 ug) with Glutathione Sepharose 4B beads, 4 °C overnight, 20 mM Tris-Cl, 100 mM NaCl, 5 mM MgCl2, 1 mM EDTA, 1 mM DTT, 0.5% NP-40, 10 ug/mL BSA, pH 7.5; immunoblot; both purified

| Binder | binding [1] | further results |
| --- | --- | --- |
| ALDH1A2 (yeast two-hybrid prey, pDEST22) (enzyme, UniProt O94788 1-518) MTSSKIEMPGEVKADPAALMASLHLLPSPTPNLEIKYTKIFINNEWQNSESGRVFPVYNPATGEQVCEVQEADKADIDKAVQAARLAFSLGSVWRRMDASERGRLLDKLADLVERDRAVLATMESLNGGKPFLQAFYVDLQGVIKTFRYYAGWADKIHGMTIPVDGDYFTFTRHEPIGVCGQIIPWNFPLLMFAWKIAPALCCGNTVVIKPAEQTPLSALYMGALIKEAGFPPGVINILPGYGPTAGAAIASHIGIDKIAFTGSTEVGKLIQEAAGRSNLKRVTLELGGKSPNIIFADADLDYAVEQAHQGVFFNQGQCCTAGSRIFVEESIYEEFVRRSVERAKRRVVGSPFDPTTEQGPQIDKKQYNKILELIQSGVAEGAKLECGGKGLGRKGFFIEPTVFSNVTDDMRIAKEEIFGPVQEILRFKTMDEVIERANNSDFGLVAAVFTNDINKALTVSSAMQAGTVWINCYNALNAQSPFGGFKMSGNGREMGEFGLREYSEVKTVTVKIPQKNS | binds | – |
| TSC22D3 (yeast two-hybrid prey, pDEST22) (protein, UniProt Q99576 1-134) MNTEMYQTPMEVAVYQLHNFSISFFSSLLGGDVVSVKLDNSASGASVVAIDNKIEQAMDLVKNHLMYAVREEVEILKEQIRELVEKNSQLERENTLLKTLASPEQLEKFQSCLSPEEPAPESPQVPEAPGGSAV | – | binding [2]: binds |
| ALDH1A2 (in HEK293T cells, co-immunoprecipitation) (enzyme, UniProt O94788 1-518) MTSSKIEMPGEVKADPAALMASLHLLPSPTPNLEIKYTKIFINNEWQNSESGRVFPVYNPATGEQVCEVQEADKADIDKAVQAARLAFSLGSVWRRMDASERGRLLDKLADLVERDRAVLATMESLNGGKPFLQAFYVDLQGVIKTFRYYAGWADKIHGMTIPVDGDYFTFTRHEPIGVCGQIIPWNFPLLMFAWKIAPALCCGNTVVIKPAEQTPLSALYMGALIKEAGFPPGVINILPGYGPTAGAAIASHIGIDKIAFTGSTEVGKLIQEAAGRSNLKRVTLELGGKSPNIIFADADLDYAVEQAHQGVFFNQGQCCTAGSRIFVEESIYEEFVRRSVERAKRRVVGSPFDPTTEQGPQIDKKQYNKILELIQSGVAEGAKLECGGKGLGRKGFFIEPTVFSNVTDDMRIAKEEIFGPVQEILRFKTMDEVIERANNSDFGLVAAVFTNDINKALTVSSAMQAGTVWINCYNALNAQSPFGGFKMSGNGREMGEFGLREYSEVKTVTVKIPQKNS | – | binding [3]: binds |
| TSC22D3-Flag-His6 (protein, UniProt Q99576 1-134) MNTEMYQTPMEVAVYQLHNFSISFFSSLLGGDVVSVKLDNSASGASVVAIDNKIEQAMDLVKNHLMYAVREEVEILKEQIRELVEKNSQLERENTLLKTLASPEQLEKFQSCLSPEEPAPESPQVPEAPGGSAV | – | binding (GST-UFL1 (human)): binds |
| MCM6 (yeast two-hybrid prey, pDEST22) (protein, UniProt Q14566 1-821) MDLAAAAEPGAGSQHLEVRDEVAEKCQKLFLDFLEEFQSSDGEIKYLQLAEELIRPERNTLVVSFVDLEQFNQQLSTTIQEEFYRVYPYLCRALKTFVKDRKEIPLAKDFYVAFQDLPTRHKIRELTSSRIGLLTRISGQVVRTHPVHPELVSGTFLCLDCQTVIRDVEQQFKYTQPNICRNPVCANRRRFLLDTNKSRFVDFQKVRIQETQAELPRGSIPRSLEVILRAEAVESAQAGDKCDFTGTLIVVPDVSKLSTPGARAETNSRVSGVDGYETEGIRGLRALGVRDLSYRLVFLACCVAPTNPRFGGKELRDEEQTAESIKNQMTVKEWEKVFEMSQDKNLYHNLCTSLFPTIHGNDEVKRGVLLMLFGGVPKTTGEGTSLRGDINVCIVGDPSTAKSQFLKHVEEFSPRAVYTSGKASSAAGLTAAVVRDEESHEFVIEAGALMLADNGVCCIDEFDKMDVRDQVAIHEAMEQQTISITKAGVKATLNARTSILAAANPISGHYDRSKSLKQNINLSAPIMSRFDLFFILVDECNEVTDYAIARRIVDLHSRIEESIDRVYSLDDIRRYLLFARQFKPKISKESEDFIVEQYKHLRQRDGSGVTKSSWRITVRQLESMIRLSEAMARMHCCDEVQPKHVKEAFRLLNKSIIRVETPDVNLDQEEEIQMEVDEGAGGINGHADSPAPVNGINGYNEDINQESAPKASLRLGFSEYCRISNLIVLHLRKVEEEEDESALKRSELVNWYLKEIESEIDSEEELINKKRIIEKVIHRLTHYDHVLIELTQAGLKGSTEGSESYEEDPYLVVNPNYLLED | binds | – |
| MSTO1 (yeast two-hybrid prey, pDEST22) (protein, UniProt Q9BUK6 1-570) MAGGAREVLTLQLGHFAGFVGAHWWNQQDAALGRATDSKEPPGELCPDVLYRTGRTLHGQETYTPRLILMDLKGSLSSLKEEGGLYRDKQLDAAIAWQGKLTTHKEELYPKNPYLQDFLSAEGVLSSDGVWRVKSIPNGKGSSPLPTATTPKPLIPTEASIRVWSDFLRVHLHPRSICMIQKYNHDGEAGRLEAFGQGESVLKEPKYQEELEDRLHFYVEECDYLQGFQILCDLHDGFSGVGAKAAELLQDEYSGRGIITWGLLPGPYHRGEAQRNIYRLLNTAFGLVHLTAHSSLVCPLSLGGSLGLRPEPPVSFPYLHYDATLPFHCSAILATALDTVTVPYRLCSSPVSMVHLADMLSFCGKKVVTAGAIIPFPLAPGQSLPDSLMQFGGATPWTPLSACGEPSGTRCFAQSVVLRGIDRACHTSQLTPGTPPPSALHACTTGEEILAQYLQQQQPGVMSSSHLLLTPCRVAPPYPHLFSSCSPPGMVLDGSPKGAAVESIPVFGALCSSSSLHQTLEALARDLTKLDLRRWASFMDAGVEHDDVAELLQELQSLAQCYQGGDSLVD | binds | – |
| IL24 (yeast two-hybrid prey, pDEST22) (protein, UniProt Q13007 1-206) MNFQQRLQSLWTLARPFCPPLLATASQMQMVVLPCLGFTLLLWSQVSGAQGQEFHFGPCQVKGVVPQKLWEAFWAVKDTMQAQDNITSARLLQQEVLQNVSDAESCYLVHTLLEFYLKTVFKNYHNRTVEVRTLKSFSTLANNFVLIVSQLQPSQENEMFSIRDSAHRRFLLFRRAFKQLDVEAALTKALGEVDILLTWMQKFYKL | binds | – |
| CRP (yeast two-hybrid prey, pDEST22) (protein, UniProt P02741 1-224) MEKLLCFLVLTSLSHAFGQTDMSRKAFVFPKESDTSYVSLKAPLTKPLKAFTVCLHFYTELSSTRGYSIFSYATKRQDNEILIFWSKDIGYSFTVGGSEILFEVPEVTVAPVHICTSWESASGIVEFWVDGKPRVRKSLKKGYTVGAEASIILGQEQDSFGGNFEGSQSLVGDIGNVNMWDFVLSPDEINTIYLGGPFSPNVLNWRALKYEVQGEVFTKPQLWP | binds | – |
